This is one part of the list.
Experiment: insulin gene promoter suppression in islet cells – imaging, TRM-6 cells (human fetal islet line), eGFP reporter, cell count, primary screen (AID 1273;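 note: cells exposed to compound for 48 h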)
Conditions: measured here: cell count, toxicity, at 2 µM, reporter expression induced with tamoxifen

Row | Structure (SMILES) | normalized cell count
1 | CC(=O)NC(SC(=S)N(CC(C)C)CC(C)C)C(Cl)(Cl)Cl (configuration not stated) | 55.3%
2 | CP(=O)(Nc1ccccc1)Oc1ccc(F)cc1 (configuration not stated) | 203%
3 | c1ccc(-c2nn[nH]n2)c(-c2nn[nH]n2)c1 | 96.1%
4 | COc1ccc(OP(C)(=O)Nc2ccc(SC(F)(F)F)cc2)cc1 (configuration not stated) | 100%
5 | CCOC(=O)c1ccc(NP(C)(=O)Oc2ccc(F)cc2)cc1 (configuration not stated) | 99.3%
6 | CC(=O)NC(SC(=S)N(C)C)C(Cl)(Cl)Cl (configuration not stated) | 85.8%
7 | C(Cc1nn[nH]n1)Cc1nn[nH]n1 | 147%
8 | CN(C)CCOC(=O)C(O)(c1ccccc1)C1CCCCC1 (configuration not stated) | 107%
9 | CP(=O)(Nc1ccc2c(c1)OCCO2)Oc1ccccc1 (configuration not stated) | 129%
10 | Cc1ccccc1NP(C)(=O)Nc1ccccc1C | 126%
11 | O=P(Nc1nccs1)(c1ccccc1)c1ccccc1 | 51.1%
12 | CC(C)C(=O)NC(Sc1ccccc1)C(Cl)(Cl)Cl (configuration not stated) | 95.4%
13 | CCN(/C(=N/P(=O)(N1CCOCC1)N1CCOCC1)N1CCOCC1)c1ccc(OC)cc1 | 102%
14 | CP(=O)(Nc1ccc(Cl)cc1)Oc1ccc(F)cc1 (configuration not stated) | 143%
15 | COc1ccccc1OP(C)(=O)Nc1ccccc1Br (configuration not stated) | 98.3%
16 | CC(C)(C)c1ccc(OP(C)(=O)O)cc1 | 126%
17 | CC1CCN(C(=O)Oc2c(Cl)cc(Cl)c3cccnc23)CC1 | 113%
18 | CN(C)C(=O)c1c([N+](=O)[O-])cc([N+](=O)[O-])cc1[N+](=O)[O-] | 96.6%
19 | CN(C)C(=O)OCCc1n(C)cc[n+]1C | 105%
20 | CCN(CC)CC(O)COC(=O)C(O)(c1ccccc1)C1CCCCC1 (configuration not stated) | 236%
21 | COc1ccc(OP(C)(=O)Nc2ccc(Br)cc2)cc1 (configuration not stated) | 95.5%
22 | COc1ccc(C2=NCC(CBr)S2)cc1 (configuration not stated) | 98.8%
23 | O=[N+]([O-])c1cc([N+](=O)[O-])c(CCNc2ccccc2)c([N+](=O)[O-])c1 | 85.9%
24 | CCc1nc2c(n1)c1c(non1O)c1c2no[n+]1[O-] | 71.6%

Row | Structure (SMILES) | normalized cell count
25 | CC(=O)N1C2C3N(C(C)=O)C1C1N(C(C)=O)C(C(N1C(C)=O)N3C(C)=O)N2C(C)=O | 64.8%
26 | O=[N+]([O-])c1cccc2n[nH]nc12 | 132%
27 | COc1ccccc1OP(C)(=O)Nc1c(C)n(C)n(-c2ccccc2)c1=O (configuration not stated) | 99%
28 | O=[N+]([O-])c1ncn(CCn2ncnc2[N+](=O)[O-])n1 | 90.2%
29 | CP(=O)(OC12CC3CC(CC(C3)C1)C2)OC12CC3CC(CC(C3)C1)C2 | 104%
30 | CCOC(=O)c1ccc(NP(C)(=O)Oc2ccc(Cl)cc2)cc1 (configuration not stated) | 79.4%
31 | Cc1nc2ccc3ccccc3c2o1.O=[N+]([O-])c1cc([N+](=O)[O-])c(O)c([N+](=O)[O-])c1 | 81.5%
32 | CCN(N=Nc1nonc1N)c1nonc1N | 103%
33 | COc1ccc(OP(C)(=O)Nc2ccccc2Br)cc1 (configuration not stated) | 98.8%
34 | CCOP(=O)(Nc1ccccc1)OCC | 93.7%
35 | COc1ccccc1OP(C)(=O)Nc1ccc(C)c(C)c1 (configuration not stated) | 124%
36 | Oc1ccccc1CNc1ccccn1 | 132%
37 | O=C(NC(Sc1ccncn1)C(Cl)(Cl)Cl)c1ccccc1 (configuration not stated) | 126%
38 | Cc1c(NP(C)(=O)Oc2ccc(C(C)C)cc2)c(=O)n(-c2ccccc2)n1C (configuration not stated) | 67.6%
39 | CC(C)CC(=O)NC(Sc1ccc(Cl)cc1)C(Cl)(Cl)Cl (configuration not stated) | 80.2%
40 | CCc1ccc(OP(C)(=O)O)cc1 | 116%
41 | CP(=O)(Nc1ccccn1)Oc1ccccc1 (configuration not stated) | 174%
42 | COc1ccccc1OP(C)(=O)Nc1ccc(C)cc1C (configuration not stated) | 69.6%
43 | Cc1ccc(N/C(=N/P(=O)(N2CCOCC2)N2CCOCC2)N2CCOCC2)cc1 | 113%
44 | NC(=O)c1cc([N+](=O)[O-])cc([N+](=O)[O-])c1N | 118%
45 | CN1CCCC(OC(=O)C(c2ccccc2)c2ccccc2)C1 (configuration not stated) | 206%
46 | CN(C)CCOC(=O)C(O)(c1ccccc1)C1CCCC1 (configuration not stated) | 106%
47 | COc1ccc(OP(C)(=O)Nc2ccccn2)cc1 (configuration not stated) | 68.5%

— PubChem BioAssay AID1273 (Columbia University Molecular Screening Center, 2008)
